Laboratory results published in the supplement of paper PMC11732987, “Enantioselective OTUD7B fragment discovery through chemoproteomics screening and high-throughput optimisation” (Communications Chemistry, 2025).
Some of the results follow. The data scatter; read single values as rough.

Protein sequences, listed by entry. Tags and fused reporters are not part of them. Lines headed by an entry give the natural chain unless they say otherwise; changes in a name come on top.
UniProt Q8IYD1: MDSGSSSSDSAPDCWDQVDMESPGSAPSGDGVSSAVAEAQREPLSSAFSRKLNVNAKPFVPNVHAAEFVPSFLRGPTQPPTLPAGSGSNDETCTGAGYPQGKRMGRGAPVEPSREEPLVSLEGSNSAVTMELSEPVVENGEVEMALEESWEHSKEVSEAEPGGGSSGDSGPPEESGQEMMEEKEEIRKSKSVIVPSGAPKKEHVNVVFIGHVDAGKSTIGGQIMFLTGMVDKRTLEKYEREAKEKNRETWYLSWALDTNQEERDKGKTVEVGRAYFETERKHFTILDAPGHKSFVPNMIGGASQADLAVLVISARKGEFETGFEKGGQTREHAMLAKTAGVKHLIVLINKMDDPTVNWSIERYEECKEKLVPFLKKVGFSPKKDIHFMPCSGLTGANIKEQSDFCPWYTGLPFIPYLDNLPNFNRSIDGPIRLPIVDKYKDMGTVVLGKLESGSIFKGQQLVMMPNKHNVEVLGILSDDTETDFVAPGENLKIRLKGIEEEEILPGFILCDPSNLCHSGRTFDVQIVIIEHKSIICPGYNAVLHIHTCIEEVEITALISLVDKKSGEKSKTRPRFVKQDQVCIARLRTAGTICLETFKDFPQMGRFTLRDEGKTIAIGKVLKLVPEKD

The molecules below were run against T1, GSPT2 C93 (UniProt Q8IYD1) (assay: log2 mean competition ratio of IA-DTB cysteine labelling (DMSO/compound) (log2 ratio); higher = stronger cysteine engagement by compound). Details: 50 µM; treatment time: 4 h; cell line lysate: HEK293T.
T1 sequence (whole entry): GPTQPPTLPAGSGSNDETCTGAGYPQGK
Protocol: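 IA-DTB competitive cysteine chemoproteomics in HEK293T RIPA lysate. Lysates were treated with compound 29 or 30 at 50 or 200 µM for 4 h, then IA-DTB (500 µM, 1 h), trypsin-digested, NeutrAvidin-enriched and analysed by diaPASEF. Competition ratio = intensity DMSO / intensity compound (n=4 treated, n=64 DMSO); binding: mean log2 CR ≥ 1 and p ≤ 0.05 plus QC filters. Target is the cysteine site.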

| SMILES | log2 mean competition ratio |
| --- | --- |
| O=C(CCl)N[C@H]1CCCc2ccccc21 | 0.485 |
| O=C(CCl)N[C@@H]1CCCc2ccccc21 | 0.0458 |

Same assay, conditions: 200 µM; treatment time: 4 h; cell line lysate: HEK293T

| SMILES | log2 mean competition ratio |
| --- | --- |
| O=C(CCl)N[C@H]1CCCc2ccccc21 | -0.154 |
| O=C(CCl)N[C@@H]1CCCc2ccccc21 | -0.183 |
